Source: publication doi:10.1101/2021.03.28.437237
Results are given in words; binding and its absence hold for the method and conditions named. In cells and extracts the contact can be indirect. Some binding calls cover weakened binding; strength is not graded here. Tags and fused reporters may be left off the sequences shown.

Target: wild-type FOXN1 (human), FLAG-tagged (human) (UniProt O15353)
Experiment: co-IP

binding: binds
B1: wild-type FOXN1 (human), FLAG-tagged (protein, UniProt O15353 1-648)
chain: MVSLPPPQSDVTLPGPTRLEGERQGDLMQAPGLPGSPAPQSKHAGFSCSSFVSDGPPERTPSLPPHSPRIASPGPEQVQGHCPAGPGPGPFRLSPSDKYPGFGFEEAAASSPGRFLKGSHAPFHPYKRPFHEDVFPEAETTLALKGHSFKTPGPLEAFEEIPVDVAEAEAFLPGFSAEAWCNGLPYPSQEHGPQVLGSEVKVKPPVLESGAGMFCYQPPLQHMYCSSQPPFHQYSPGGGSYPIPYLGSSHYQYQRMAPQASTDGHQPLFPKPIYSYSILIFMALKNSKTGSLPVSEIYNFMTEHFPYFKTAPDGWKNSVRHNLSLNKCFEKVENKSGSSSRKGCLWALNPAKIDKMQEELQKWKRKDPIAVRKSMAKPEELDSLIGDKREKLGSPLLGCPPPGLSGSGPIRPLAPPAGLSPPLHSLHPAPGPIPGKNPLQDLLMGHTPSCYGQTYLHLSPGLAPPGPPQPLFPQPDGHLELRAQPGTPQDSPLPAHTPPSHSAKLLAEPSPARTMHDTLLPDGDLGTDLDAINPSLTDFDFQGNLWEQLKDDSLALDPLVLVTSSPTSSSMPPPQPPPHCFPPGPCLTETGSGAGDLAAPGSGGSGALGDLHLTTLYSAFMELEPTPPTAPAGPSVYLSPSSKPVALA
